These results are taken from PMC3527276.

Amino acid sequences for entries named in this document (tags omitted). A change or cut given only in a name is not applied to a line headed by its entry.
UniProt P50549: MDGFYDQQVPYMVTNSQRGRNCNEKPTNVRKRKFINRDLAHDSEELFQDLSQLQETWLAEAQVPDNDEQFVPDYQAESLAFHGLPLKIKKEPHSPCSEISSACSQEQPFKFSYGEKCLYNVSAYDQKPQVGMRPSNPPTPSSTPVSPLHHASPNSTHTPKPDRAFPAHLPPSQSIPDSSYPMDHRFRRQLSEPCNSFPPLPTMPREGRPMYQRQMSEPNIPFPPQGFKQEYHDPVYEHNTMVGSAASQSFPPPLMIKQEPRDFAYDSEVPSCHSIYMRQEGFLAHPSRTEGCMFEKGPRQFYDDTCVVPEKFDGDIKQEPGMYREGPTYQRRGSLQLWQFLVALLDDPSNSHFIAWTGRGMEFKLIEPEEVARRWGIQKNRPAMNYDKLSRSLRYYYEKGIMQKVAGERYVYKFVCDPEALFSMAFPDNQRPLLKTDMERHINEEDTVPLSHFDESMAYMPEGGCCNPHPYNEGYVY
UniProt Q13535: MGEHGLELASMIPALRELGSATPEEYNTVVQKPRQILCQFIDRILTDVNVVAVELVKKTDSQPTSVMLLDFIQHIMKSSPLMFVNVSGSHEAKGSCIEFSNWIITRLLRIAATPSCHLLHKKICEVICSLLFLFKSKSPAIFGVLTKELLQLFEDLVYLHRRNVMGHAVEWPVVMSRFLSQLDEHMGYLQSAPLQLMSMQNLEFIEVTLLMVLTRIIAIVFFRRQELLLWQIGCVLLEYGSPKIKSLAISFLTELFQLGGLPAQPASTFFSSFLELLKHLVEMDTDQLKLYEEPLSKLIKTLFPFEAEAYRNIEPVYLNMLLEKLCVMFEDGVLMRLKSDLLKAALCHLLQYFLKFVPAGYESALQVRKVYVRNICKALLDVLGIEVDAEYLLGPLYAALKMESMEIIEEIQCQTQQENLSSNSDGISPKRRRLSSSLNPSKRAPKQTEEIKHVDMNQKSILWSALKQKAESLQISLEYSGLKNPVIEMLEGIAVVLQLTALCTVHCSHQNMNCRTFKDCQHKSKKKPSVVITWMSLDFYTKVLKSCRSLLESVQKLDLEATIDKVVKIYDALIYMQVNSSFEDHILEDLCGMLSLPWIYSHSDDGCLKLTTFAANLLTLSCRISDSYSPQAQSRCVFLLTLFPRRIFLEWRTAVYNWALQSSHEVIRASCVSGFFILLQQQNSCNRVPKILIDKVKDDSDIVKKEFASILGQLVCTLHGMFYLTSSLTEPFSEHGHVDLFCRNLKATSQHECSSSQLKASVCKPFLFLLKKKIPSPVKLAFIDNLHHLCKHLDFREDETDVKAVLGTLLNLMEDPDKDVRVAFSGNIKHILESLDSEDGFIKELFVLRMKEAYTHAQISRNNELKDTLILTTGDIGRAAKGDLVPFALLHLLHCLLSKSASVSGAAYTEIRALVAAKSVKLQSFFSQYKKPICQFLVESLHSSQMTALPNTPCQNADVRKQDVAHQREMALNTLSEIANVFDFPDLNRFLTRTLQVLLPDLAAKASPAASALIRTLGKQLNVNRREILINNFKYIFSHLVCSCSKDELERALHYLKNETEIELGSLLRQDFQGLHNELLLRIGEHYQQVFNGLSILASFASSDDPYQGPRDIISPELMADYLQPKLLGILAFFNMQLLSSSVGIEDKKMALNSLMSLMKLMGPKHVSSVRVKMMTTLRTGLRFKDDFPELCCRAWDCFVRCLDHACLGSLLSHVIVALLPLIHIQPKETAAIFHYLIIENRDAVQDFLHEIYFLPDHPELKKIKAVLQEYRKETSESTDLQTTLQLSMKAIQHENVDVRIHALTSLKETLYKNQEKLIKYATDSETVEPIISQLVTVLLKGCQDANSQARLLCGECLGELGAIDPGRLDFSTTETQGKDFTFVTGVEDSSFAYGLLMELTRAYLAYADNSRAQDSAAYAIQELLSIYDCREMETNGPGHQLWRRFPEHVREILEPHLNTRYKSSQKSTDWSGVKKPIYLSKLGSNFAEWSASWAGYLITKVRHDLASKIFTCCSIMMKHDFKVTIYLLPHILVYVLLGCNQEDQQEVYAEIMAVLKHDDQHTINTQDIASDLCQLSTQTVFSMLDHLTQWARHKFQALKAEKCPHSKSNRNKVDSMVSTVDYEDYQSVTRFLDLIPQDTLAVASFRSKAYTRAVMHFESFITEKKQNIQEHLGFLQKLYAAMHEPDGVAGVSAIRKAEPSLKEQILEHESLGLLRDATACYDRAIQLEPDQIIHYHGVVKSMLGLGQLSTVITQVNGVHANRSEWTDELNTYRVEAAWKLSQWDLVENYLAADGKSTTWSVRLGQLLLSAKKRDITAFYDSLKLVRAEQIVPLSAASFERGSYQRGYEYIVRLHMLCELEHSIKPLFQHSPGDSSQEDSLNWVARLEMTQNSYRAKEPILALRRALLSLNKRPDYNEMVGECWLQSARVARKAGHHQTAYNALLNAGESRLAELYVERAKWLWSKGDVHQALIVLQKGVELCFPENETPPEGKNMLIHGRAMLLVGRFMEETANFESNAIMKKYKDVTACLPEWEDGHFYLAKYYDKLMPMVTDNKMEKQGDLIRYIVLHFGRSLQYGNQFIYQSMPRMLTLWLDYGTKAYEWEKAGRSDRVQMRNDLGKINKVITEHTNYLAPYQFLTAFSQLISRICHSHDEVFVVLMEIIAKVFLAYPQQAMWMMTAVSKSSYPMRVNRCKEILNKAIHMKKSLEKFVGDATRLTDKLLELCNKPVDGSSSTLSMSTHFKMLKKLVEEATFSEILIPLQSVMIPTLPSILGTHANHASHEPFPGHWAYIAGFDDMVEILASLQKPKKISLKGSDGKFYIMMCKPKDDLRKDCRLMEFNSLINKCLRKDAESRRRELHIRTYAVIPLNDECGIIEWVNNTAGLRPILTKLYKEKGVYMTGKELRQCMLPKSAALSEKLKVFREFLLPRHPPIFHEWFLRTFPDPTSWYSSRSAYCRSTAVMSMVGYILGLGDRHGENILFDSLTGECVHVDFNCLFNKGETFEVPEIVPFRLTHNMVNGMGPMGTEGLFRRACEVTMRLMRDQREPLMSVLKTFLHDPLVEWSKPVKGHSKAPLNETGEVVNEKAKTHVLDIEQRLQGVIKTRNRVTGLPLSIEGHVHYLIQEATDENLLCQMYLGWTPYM

Results are given in words; binding and its absence hold for the method and conditions named. In cells and extracts the contact can be indirect. Binding can be weak; no strength is given.

In test [1] the target is FLAG-tagged ETV1 derivative (human) (UniProt P50549). As to the kind of experiment: co-IP; whole cell lysate (2 mg) of p53+ or p53- HCT116 cells expressing Flag-ETV1; IP lysis buffer 50 mM Tris-Cl pH 7.4, 250 mM NaCl, 5 mM EDTA, 0.2% Triton X-100, 0.5 mM DTT; antibody to ATR or to Flag (control IgG) overnight at 4°C, Dynabeads Protein G; both orientations, immunoblot. Background: In western blotting, separated proteins are transferred to a membrane and probed.

Test [2] deals with ATR (human (endogenous in HCT116)) (UniProt Q13535). The description is as above.

Consider “ATR (from UniProt Q13535-1 1-2644) (enzyme)”, for which the binding entry in test [1] is recorded as “binds”. “FLAG-tagged ETV1 derivative (from UniProt P50549-1)”: in test [2], the binding entry is “binds”.
